From US5233031A, “Phosphoramidate analogs of 2'-deoxyuridine” (University of Rochester, priority 1991, dated 1993)
At least one structure is not confirmed: it was looked up by name or label, or the drawing left a doubt.

Assays:
Assay type in all cases: cell-based
L1210 leukemia cells [1] = assay: Growth inhibition against L1210 leukemia cells in vitro
Protocol: In addition to the B16 melanoma cell assay summarized in Table I, compounds 1a-e, 5 and 7 were evaluated for growth inhibitory activity against L1210 leukemia cells. Stock solutions of the compounds were prepared in 95% ethanol, and serial dilutions of drug were prepared in ethanol such that 50 μl of drug solution added to 10 ml of cell suspension gave the desired final concentration. L1210 cells in exponential growth were suspended in Fischer's medium supplemented with 10% horse serum, 1% glutamine, and 1% antibiotic-antimycotic solution to give 10-ml volumes of cell suspension at a final density of 3-6×10^4 /ml. Appropriate volumes of the solutions of each compound were transferred to the cell suspensions, and incubation was continued for 2, 8, 24, or 48 hr. The cells were spun down, resuspended in fresh drug-free medium, and returned to the incubator, then counted with a Coulter Counter 48 hr after treatment with the compound.
^a Data represents an average of at least two experiments; L1210 cell
were treated with compound for 2, 8, 24 and 48 hr. The drugcontaining
medium was removed, cells were washed, complete medium was added, and the
cells were incubated for 48 hr total. Cell counts were obtained 48 hr
after the start of treatment.

L1210 leukemia cells [2] = assay: Reversal of L1210 growth inhibition by addition of thymidine; settings: concentration not given
Source text: The relationship between potency and alkylating activity was confirmed by the synthesis and evaluation of the non-alkylating morpholino phosphoramidate 1e.

B16 melanoma cells = assay: Cytotoxicity against B16 melanoma cells (clonogenic assay); settings: 2 hr treatment
Protocol: ^a Concentration of compound required to kill 99% of B16 melanoma
cells in a clonogenic assay. Cells were treated with the compound for 2
B16 cells in exponential growth (2-3×10^6 cells in 10 ml of serum-free MEM medium) were treated with drug for 2 hr. The cells were separated, washed, and resuspended in MEM medium supplemented with 10% fetal bovine serum. The cells were plated in 60-mm culture dishes at a density of 50-50,000 cells/plate (depending upon the drug concentration used initially) and then incubated for 8 days in a CO2 incubator at 37° C. The colonies were fixed and stained with 0.5% crystal violet in ethanol and counted.

Structure (SMILES): CC1CC(C)(C)NC(CCOP(=O)(OC[C@H]2O[C@@H](n3cc(F)c(=O)[nH]c3=O)C[C@@H]2O)N(C)CCCl)O1 (some centres unmarked) [Compound 1c]
- potency compared with 1a, 1b, and 1d (L1210 leukemia cells [1]; 24- and 48-hour treatment groups): equipotent
- potency compared with 1a, 1b, and 1d (L1210 leukemia cells [1]; shorter exposure times): less potent

Structure (SMILES): CC1CC(C)(C)NC(CCOP(=O)(OC[C@H]2O[C@@H](n3cc(F)c(=O)[nH]c3=O)C[C@@H]2O)N2CCOCC2)O1 (some centres unmarked) [Compound 1e, 5-Fluoro-2'-deoxy-5'-uridyl-[2-(4,4,6-trimethyltetrahydro-1,3-oxazin-2-yl)ethyl]-morpholinophosphoramidate]
- activity on addition of thymidine (L1210 leukemia cells [2]): completely reversed

Structure (SMILES): CC1CC(C)(C)NC(CCOP(=O)(OC[C@H]2O[C@@H](n3ccc(=O)[nH]c3=O)C[C@@H]2O)N(CCBr)CCBr)O1 (some centres unmarked) [Compound 6, 2'-Deoxy-5'-uridyl-[2-(4,4,6-trimethyltetrahydro-1,3-oxazin-2-yl)ethyl]-bis-(2-bromoethyl)phosphoramidate]
- LC-99 (concentration of compound required to kill 99% of B16 melanoma cells) (B16 melanoma cells): 150 µM

Structure (SMILES): CC1CC(C)(C)NC(CCOP(=O)(OC[C@H]2O[C@@H](n3cc(F)c(=O)[nH]c3=O)C[C@@H]2O)N(CCBr)CCBr)O1 (some centres unmarked) [Compound 9, 5-Fluoro-2'-deoxy-5'-uridyl-[2-(4,4,6-trimethyltetrahydro-1,3-oxazin-2-yl)ethyl]bis-(2-bromoethyl)phosphoramidate]
- LC-99 (concentration of compound required to kill 99% of B16 melanoma cells) (B16 melanoma cells): 90 µM
